Experimental data published in patent US20080227220A1, “Lateral Flow Binding Assay” (priority 2004, published 2008).

Test system: antibiotic binding protein (PBP)
Experiment: Lateral flow test strip for detection of β-lactams in milk (sequential assay)
Set-up: species or system Bacillus stearothermophilus
Conditions: milk sample 0.1 mL; 5 min then 10 min incubation at 64° C.; capture line vs reference line read visually

CC(=O)OCC1=C(C(=O)O)N2C(=O)[C@@H](NC(=O)CSc3ccncc3)[C@H]2SC1 [Cephapirin, cephapirin]
Sensitivity: 4 ppb
